Patent US10196362B2, “Carbamate compound and use thereof” (SUMITOMO CHEMICAL COMPANY, LIMITED, priority 2015, dated 2019)
Some of these results come from one statement about several compounds together.

Assays:
[1] = test system: rice blast fungus (Magnaporthe grisea); assay type: in vivo; conditions: rice (Nipponbare), 500 ppm foliar spray, Formulation Example 6, contact with infected seedling for 6 days
[2] = test system: wheat rust fungus (Puccinia recondita); test: Test Example 2: wheat rust, foliar spray preventive pot test; assay type: in vivo; conditions: wheat (Shirogane), 500 ppm foliar spray, Formulation Example 6, inoculated after 5 days
[3] = test system: soybean rust (Phakopsora pachyrhizi); test: Test Example 7: soybean rust, foliar spray pot test; assay type: in vivo; conditions: soybean (Kurosengoku), 200 ppm foliar spray, Formulation Example 6, inoculated after 4 days
[4] = test system: wheat leaf blight fungus (Septoria tritici); test: Test Example 8: titer plate growth test of wheat leaf blight fungus, absorbance at 550 nm; assay type: cell-based; conditions: 150 ppm DMSO dilution, 1 μl plus 150 μl culture medium, 18° C., 4 days

| Structure (SMILES) | lesion area on treated plant relative to untreated plant [1] [%] | area of the lesion on treated plant relative to untreated plant [2] [%] | area of the lesion on treated plant relative to untreated plant [3] [%] | Controlling effect (%)=100×(A−B)/A [4] [%] |
| --- | --- | --- | --- | --- |
| COC(=O)Nc1cccc(C)c1COc1ccc(-n2cc(C)c(C)n2)cc1C [Compound 5] | ≤ 30 | ≤ 30 | – | – |
| COC(=O)Nc1ccccc1COc1ccc(-n2cc(C)c(C)n2)cc1C [Compound 6] | – | – | ≤ 30 | ≥ 70 |
| COC(=O)Nc1ccccc1COc1ccc(-n2cccn2)cc1C [Compound 7] | – | – | ≤ 30 | ≥ 70 |
